Some of the results follow.
Assays:
Test in all cases: log2 fold change, soluble protein after heating vs DMSO (PISA); higher = thermal stabilisation; K562 lysate, 10 uM; active = over 0.2 and 3.5 SD of the protein, either way, in both replicates (recomputed)
erlotinib = compound: C#Cc1cccc(Nc2ncnc3cc(OCCOC)c(OCCOC)cc23)c1 [erlotinib]
Summary of the method: (§1)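 K562 pellets were dounce-homogenised in PBS pH 7.4 with 1 mM MgCl2, and the crude extract at 1 mg/mL protein was treated with 10 μM compound for 30 min. Aliquots were heated for 3 min across 48°C-58°C, pooled, and brought to 0.5% NP-40 at 4°C; soluble protein was the supernatant after 21,000xg for 90 min. Soluble protein was quantified by TMTpro 16plex LC-MS/MS with channel sums equalised, and reported as log2 fold change in thermal stability against DMSO controls, with values from duplicates.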

Amino acid sequences for entries named in this document (tags omitted). A change or cut given only in a name is not applied to a line headed by its entry.
UniProt Q9UN36: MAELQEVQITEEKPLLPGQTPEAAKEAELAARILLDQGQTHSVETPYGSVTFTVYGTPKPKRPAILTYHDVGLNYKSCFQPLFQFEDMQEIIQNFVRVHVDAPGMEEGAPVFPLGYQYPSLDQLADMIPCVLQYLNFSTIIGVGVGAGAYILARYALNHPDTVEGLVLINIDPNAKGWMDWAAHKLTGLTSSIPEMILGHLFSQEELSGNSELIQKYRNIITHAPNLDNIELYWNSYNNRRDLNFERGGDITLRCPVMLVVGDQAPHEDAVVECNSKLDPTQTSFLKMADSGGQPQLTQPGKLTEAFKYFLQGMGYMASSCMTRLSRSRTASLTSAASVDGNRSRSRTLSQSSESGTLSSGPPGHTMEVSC
UniProt O60524: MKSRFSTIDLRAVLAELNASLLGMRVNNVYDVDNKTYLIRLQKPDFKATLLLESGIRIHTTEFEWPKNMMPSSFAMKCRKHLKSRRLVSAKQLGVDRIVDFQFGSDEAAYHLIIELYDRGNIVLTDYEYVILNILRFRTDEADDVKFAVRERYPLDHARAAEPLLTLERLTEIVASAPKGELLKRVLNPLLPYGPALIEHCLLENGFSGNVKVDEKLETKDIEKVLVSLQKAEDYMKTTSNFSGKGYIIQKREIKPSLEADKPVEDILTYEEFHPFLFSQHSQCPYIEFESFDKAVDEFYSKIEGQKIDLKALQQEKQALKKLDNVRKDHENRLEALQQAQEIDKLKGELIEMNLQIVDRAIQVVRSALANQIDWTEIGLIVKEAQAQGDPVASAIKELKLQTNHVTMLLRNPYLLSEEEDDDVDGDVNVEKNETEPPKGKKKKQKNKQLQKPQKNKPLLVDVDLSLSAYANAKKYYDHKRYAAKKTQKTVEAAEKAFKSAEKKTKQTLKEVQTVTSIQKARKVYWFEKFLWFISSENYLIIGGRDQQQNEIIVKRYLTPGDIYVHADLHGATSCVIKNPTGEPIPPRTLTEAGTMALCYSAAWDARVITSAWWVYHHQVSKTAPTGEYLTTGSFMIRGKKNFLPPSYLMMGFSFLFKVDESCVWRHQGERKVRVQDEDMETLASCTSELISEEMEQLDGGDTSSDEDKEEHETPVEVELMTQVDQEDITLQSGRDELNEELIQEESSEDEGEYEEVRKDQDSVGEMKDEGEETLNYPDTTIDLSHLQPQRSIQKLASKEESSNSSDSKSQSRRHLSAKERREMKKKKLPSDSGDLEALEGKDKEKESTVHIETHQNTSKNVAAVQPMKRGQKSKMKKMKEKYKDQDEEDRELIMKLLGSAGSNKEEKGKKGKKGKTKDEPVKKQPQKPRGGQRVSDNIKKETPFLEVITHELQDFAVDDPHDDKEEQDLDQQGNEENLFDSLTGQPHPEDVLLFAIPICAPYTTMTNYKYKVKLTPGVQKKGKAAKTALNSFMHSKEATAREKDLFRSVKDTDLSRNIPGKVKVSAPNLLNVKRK
UniProt Q6ZNB6: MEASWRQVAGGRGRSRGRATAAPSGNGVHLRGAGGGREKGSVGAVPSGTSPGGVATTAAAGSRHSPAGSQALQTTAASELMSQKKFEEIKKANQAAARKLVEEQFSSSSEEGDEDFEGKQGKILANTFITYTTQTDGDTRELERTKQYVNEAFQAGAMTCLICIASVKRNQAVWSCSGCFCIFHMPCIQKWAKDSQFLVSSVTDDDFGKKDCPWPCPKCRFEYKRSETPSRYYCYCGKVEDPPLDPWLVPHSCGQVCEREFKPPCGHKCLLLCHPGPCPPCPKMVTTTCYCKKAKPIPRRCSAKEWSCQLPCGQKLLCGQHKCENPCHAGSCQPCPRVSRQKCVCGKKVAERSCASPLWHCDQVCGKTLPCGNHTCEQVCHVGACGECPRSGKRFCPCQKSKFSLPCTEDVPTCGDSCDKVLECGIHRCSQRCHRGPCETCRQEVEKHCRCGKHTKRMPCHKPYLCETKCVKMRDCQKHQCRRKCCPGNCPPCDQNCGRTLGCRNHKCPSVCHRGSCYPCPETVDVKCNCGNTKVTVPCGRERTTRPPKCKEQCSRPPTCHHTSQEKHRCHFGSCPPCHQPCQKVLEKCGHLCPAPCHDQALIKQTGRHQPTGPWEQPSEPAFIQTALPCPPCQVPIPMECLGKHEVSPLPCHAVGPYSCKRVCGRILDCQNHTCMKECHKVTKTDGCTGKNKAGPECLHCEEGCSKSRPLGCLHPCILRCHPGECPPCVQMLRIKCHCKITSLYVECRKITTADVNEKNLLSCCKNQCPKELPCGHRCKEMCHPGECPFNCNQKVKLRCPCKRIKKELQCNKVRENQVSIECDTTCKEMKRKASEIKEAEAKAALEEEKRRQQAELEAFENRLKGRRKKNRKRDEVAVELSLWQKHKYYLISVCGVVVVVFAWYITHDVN
UniProt O43678, whole entry, looked up: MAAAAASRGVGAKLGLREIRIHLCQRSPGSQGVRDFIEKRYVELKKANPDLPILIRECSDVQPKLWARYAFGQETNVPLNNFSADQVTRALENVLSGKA
UniProt Q9Y221: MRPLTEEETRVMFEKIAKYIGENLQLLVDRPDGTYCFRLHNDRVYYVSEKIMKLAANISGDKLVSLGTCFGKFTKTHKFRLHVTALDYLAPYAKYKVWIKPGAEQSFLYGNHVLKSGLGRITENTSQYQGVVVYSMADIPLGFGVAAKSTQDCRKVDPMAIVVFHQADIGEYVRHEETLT
UniProt O75489, whole entry, looked up: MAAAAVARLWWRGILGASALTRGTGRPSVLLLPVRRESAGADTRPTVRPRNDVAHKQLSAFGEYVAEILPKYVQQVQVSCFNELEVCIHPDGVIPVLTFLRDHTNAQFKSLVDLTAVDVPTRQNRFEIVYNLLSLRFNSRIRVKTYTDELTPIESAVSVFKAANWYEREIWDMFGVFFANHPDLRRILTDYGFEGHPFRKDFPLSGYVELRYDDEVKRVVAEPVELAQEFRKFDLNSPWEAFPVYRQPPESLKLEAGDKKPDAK
UniProt Q9BYT8, whole entry, looked up: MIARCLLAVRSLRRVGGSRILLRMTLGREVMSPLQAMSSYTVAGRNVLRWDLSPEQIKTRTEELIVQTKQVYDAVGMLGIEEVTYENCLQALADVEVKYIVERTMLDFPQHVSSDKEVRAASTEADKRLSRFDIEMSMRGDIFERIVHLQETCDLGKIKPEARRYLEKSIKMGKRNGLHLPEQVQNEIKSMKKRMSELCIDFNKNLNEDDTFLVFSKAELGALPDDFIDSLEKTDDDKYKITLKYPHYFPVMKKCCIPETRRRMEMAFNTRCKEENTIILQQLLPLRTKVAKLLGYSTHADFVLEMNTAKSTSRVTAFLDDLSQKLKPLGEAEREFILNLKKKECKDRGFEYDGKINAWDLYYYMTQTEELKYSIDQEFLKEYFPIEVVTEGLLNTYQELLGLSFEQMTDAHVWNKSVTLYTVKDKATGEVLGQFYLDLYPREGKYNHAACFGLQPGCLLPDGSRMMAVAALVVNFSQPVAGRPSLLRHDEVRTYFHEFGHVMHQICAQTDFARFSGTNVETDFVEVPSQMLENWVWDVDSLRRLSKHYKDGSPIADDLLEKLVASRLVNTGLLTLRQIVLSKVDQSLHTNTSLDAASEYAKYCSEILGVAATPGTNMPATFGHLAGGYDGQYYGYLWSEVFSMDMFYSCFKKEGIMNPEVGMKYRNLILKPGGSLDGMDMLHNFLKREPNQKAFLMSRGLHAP
UniProt Q8WX92, whole entry, looked up: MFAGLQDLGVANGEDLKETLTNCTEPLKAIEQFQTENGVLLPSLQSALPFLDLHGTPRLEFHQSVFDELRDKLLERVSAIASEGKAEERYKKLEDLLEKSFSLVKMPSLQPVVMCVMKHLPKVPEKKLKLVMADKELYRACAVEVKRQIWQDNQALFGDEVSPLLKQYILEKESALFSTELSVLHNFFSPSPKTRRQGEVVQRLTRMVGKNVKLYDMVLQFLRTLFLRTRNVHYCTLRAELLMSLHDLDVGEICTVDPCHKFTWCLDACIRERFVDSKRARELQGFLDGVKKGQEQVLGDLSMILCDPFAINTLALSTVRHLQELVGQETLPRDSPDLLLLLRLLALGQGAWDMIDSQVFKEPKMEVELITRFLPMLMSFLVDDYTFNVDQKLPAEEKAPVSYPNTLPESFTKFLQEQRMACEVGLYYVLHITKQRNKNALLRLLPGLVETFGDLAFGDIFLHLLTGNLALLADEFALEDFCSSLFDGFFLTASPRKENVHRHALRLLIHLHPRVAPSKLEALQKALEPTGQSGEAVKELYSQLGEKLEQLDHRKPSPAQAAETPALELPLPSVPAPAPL
UniProt Q9Y697: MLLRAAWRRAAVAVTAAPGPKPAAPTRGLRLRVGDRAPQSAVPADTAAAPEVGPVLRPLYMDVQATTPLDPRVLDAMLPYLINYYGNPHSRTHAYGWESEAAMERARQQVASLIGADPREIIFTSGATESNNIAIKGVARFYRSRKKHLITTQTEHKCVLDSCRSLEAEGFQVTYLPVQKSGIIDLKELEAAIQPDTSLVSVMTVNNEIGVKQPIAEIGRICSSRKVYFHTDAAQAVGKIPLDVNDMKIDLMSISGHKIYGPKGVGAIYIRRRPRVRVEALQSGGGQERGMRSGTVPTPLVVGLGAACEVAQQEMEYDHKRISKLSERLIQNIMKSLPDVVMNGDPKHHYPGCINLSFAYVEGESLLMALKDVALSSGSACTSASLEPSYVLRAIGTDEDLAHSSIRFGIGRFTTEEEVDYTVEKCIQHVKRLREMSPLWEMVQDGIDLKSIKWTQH
UniProt Q9H3P2, whole entry, looked up: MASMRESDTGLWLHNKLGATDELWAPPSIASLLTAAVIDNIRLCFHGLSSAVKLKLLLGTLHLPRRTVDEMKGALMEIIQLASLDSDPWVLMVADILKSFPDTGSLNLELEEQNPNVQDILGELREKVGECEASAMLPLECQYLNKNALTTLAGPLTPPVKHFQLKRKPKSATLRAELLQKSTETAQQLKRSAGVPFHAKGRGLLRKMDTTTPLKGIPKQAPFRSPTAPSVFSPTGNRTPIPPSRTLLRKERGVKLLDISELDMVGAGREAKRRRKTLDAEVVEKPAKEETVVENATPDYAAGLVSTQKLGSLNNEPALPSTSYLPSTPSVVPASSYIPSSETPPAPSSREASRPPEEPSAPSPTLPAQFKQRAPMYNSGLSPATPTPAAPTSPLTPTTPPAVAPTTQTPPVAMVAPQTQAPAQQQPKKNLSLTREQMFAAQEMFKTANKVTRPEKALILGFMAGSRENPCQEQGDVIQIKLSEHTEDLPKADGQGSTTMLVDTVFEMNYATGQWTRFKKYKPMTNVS
UniProt Q96PY6: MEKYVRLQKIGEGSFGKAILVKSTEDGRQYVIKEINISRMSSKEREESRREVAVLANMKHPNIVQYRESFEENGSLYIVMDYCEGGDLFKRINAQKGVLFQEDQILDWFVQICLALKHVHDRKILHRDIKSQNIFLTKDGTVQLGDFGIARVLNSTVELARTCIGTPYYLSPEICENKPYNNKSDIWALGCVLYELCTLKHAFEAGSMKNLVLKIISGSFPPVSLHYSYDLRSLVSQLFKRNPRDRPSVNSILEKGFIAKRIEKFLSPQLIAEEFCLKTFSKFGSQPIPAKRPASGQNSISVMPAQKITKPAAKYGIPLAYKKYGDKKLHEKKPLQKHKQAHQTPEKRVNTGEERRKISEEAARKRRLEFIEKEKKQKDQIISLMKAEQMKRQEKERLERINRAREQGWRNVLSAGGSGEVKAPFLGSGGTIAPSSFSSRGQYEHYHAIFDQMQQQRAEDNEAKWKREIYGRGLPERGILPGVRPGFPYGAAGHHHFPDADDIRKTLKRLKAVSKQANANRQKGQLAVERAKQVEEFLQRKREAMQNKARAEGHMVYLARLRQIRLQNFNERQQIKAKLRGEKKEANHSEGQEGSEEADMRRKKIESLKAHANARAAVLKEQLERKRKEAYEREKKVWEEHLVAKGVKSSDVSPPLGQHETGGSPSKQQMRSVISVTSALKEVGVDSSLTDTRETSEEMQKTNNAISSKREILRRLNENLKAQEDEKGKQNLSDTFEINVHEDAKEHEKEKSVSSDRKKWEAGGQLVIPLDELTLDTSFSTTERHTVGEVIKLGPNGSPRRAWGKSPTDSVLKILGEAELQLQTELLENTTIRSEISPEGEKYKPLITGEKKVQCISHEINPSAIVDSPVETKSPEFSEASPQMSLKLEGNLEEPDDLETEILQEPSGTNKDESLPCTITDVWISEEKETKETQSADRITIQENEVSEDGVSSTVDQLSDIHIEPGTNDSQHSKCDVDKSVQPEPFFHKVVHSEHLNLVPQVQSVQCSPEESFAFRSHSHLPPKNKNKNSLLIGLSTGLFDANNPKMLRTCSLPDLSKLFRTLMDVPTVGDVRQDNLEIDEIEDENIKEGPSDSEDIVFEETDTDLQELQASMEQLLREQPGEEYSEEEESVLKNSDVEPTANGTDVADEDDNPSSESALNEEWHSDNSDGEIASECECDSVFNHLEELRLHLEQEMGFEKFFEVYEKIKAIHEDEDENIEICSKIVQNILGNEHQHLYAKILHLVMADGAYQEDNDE
UniProt O43676, whole entry, looked up: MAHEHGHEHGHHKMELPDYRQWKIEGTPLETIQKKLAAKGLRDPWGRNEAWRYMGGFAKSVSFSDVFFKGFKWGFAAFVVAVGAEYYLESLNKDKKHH

[1] = compound: C/C(=N\NC(=O)C1=CC(=CC=C1)S(=O)(=O)N2CCOCC2)/C3=C(C=CC(=C3)Cl)O
Summary of the method: as §1

[2] = compound: C1=CC(=CC=C1C2=NC3=C(N2)C=C(C=C3)C(=O)N)OC4=CC=C(C=C4)Cl
Summary of the method: as §1

[3] = compound: C1=CC2=C(C=CC(=C2)/C=C\3/C(=O)NC(=NCC4=CC=CS4)S3)N=C1
Summary of the method: as §1

[4] = compound: C1=CC2=NC=CN=C2C=C1/C=C/3\C(=O)NC(=O)S3
Summary of the method: as §1

[5] = compound: C1=CC=C(C=C1)C2=NC(=C(N2)C3=CC=NC=C3)C4=CC(=C(C=C4)Cl)O
Summary of the method: as §1

[6] = compound: C1=CC=C2C(=C1)C3=NNC4=CC=CC(=C43)C2=O
Summary of the method: as §1

[7] = compound: C1CCN(C1)C(=O)NC2=CC=CC(=C2)NC3=NC=C(C(=N3)NCCC4=CN=CN4)Br
Summary of the method: as §1

[8] = compound: C1CN(CCC1(CC2=CC=C(C=C2)Cl)N)C3=NC=NC4=C3C=CN4
Summary of the method: as §1

IRAK-1-4 Inhibitor I = compound: C1COCCN1CCN2C3=CC=CC=C3N=C2NC(=O)C4=CC(=CC=C4)[N+](=O)[O-] [IRAK-1-4 Inhibitor I]
Summary of the method: as §1

ibrutinib = compound: C=CC(=O)N1CCC[C@@H](n2nc(-c3ccc(Oc4ccccc4)cc3)c3c(N)ncnc32)C1 [ibrutinib]
Summary of the method: as §1

[9] = compound: CC(=O)c1cnc2ccc(-c3cc(Cl)c(O)c(Cl)c3)nc2c1N[C@H]1CC[C@H](CN(C)C)CC1
Summary of the method: as §1

ralimetinib = compound: CC(C)(C)Cn1c(N)nc2ccc(-c3[nH]c(C(C)(C)C)nc3-c3ccc(F)cc3)nc21 [ralimetinib]
Summary of the method: as §1

[10] = compound: CC(C)(O)CC(=O)NCCn1ccc2ncnc(Nc3ccc(Oc4cccc(C(F)(F)F)c4)c(Cl)c3)c21
Summary of the method: as §1

[11] = compound: CC(C)C1=C2N=C(C=C(N2N=C1)NCC3=CC=CC=C3)NCCCCCCN
Summary of the method: as §1

[12] = compound: CC1=C(C(CC(=O)N1)C2=CC=C(C=C2)C(F)(F)F)C(=O)NC3=C(C=C4C(=C3)C=NN4)F
Summary of the method: as §1

[13] = compound: CC1=C(C2=C(C=C1)C(=O)C3=CC=CC=C3N2CCCN)C
Summary of the method: as §1

[14] = compound: CC1=C(C=C(C=C1)NC(=O)C2=CC(=CC=C2)C(C)(C)C#N)NC3=CC4=C(C=C3)N=CN(C4=O)C
Summary of the method: as §1

[15] = compound: CC1=C(C=C(C=C1)NC(=O)C2=CC(=CC=C2)N(C)C)NC(=O)C3=CC=C(C=C3)O
Summary of the method: as §1

[16] = compound: CC1=CC=C(C=C1)SC2=C3C=C(SC3=CN=C2)C(=O)N
Summary of the method: as §1

Measured: log2 fold change

NDRG2 (UniProt Q9UN36)
inactive: erlotinib -0.002 | [1] -0.157 | [2] 0.023 | [3] 0.002 | [4] -0.022 | [5] 0.023 | [6] -0.037 | [7] 0.019 | [8] 0.044 | IRAK-1-4 Inhibitor I 0.024 | ibrutinib -0.002 | [9] 0 | ralimetinib -0.026 | [10] -0.012 | [11] -0.004 | [12] 0.008 | [13] -0.027 | [14] -0.016 | [15] 0.012 | [16] 0

NEMF (UniProt O60524)
inactive: erlotinib 0.01 | [1] 0.036 | [2] -0.046 | [3] 0.009 | [4] -0.025 | [5] 0.017 | [6] 0.004 | [7] 0.015 | [8] -0.009 | IRAK-1-4 Inhibitor I 0 | ibrutinib 0.003 | [9] 0.006 | ralimetinib 0.003 | [10] -0.02 | [11] -0.026 | [12] 0.009 | [13] -0.046 | [14] 0.001 | [15] 0.023 | [16] 0.028

NFXL1 (UniProt Q6ZNB6)
inactive: erlotinib 0.024 | [1] 0.019 | [2] 0.077 | [3] 0.025 | [4] 0.019 | [5] -0.033 | [6] -0.188 | [7] -0.03 | [8] 0.062 | IRAK-1-4 Inhibitor I -0.057 | ibrutinib -0.021 | [9] -0.019 | ralimetinib 0.008 | [10] -0.007 | [11] 0.039 | [12] 0.029 | [13] 0.018 | [14] 0.026 | [15] 0.026 | [16] 0.031

NDUFA2 (UniProt O43678)
inactive: erlotinib -0.039 | [1] 0.091 | [2] -0.02 | [3] -0.047 | [4] -0.031 | [5] -0.031 | [6] 0.038 | [7] -0.016 | [8] 0.089 | IRAK-1-4 Inhibitor I -0.013 | ibrutinib 0.06 | [9] 0.019 | ralimetinib 0.024 | [10] -0.011 | [11] -0.04 | [12] -0.016 | [13] 0.035 | [14] 0.002 | [15] 0.005 | [16] -0.003

NIP7 (UniProt Q9Y221)
inactive: erlotinib 0.001 | [1] 0.01 | [2] -0.024 | [3] 0.05 | [4] -0.023 | [5] 0.021 | [6] 0 | [7] 0.05 | [8] -0.035 | IRAK-1-4 Inhibitor I -0.011 | ibrutinib 0.039 | [9] 0.017 | ralimetinib 0.016 | [10] 0.032 | [11] 0.009 | [12] 0.009 | [13] -0.026 | [14] 0.002 | [15] -0.001 | [16] 0.031

NDUFA4 (UniProt O00483)
inactive: erlotinib 0.038 | [1] 0.092 | [2] -0.012 | [3] 0.055 | [4] 0.009 | [5] 0.055 | [6] 0.046 | [7] 0.012 | [8] 0.001 | IRAK-1-4 Inhibitor I -0.01 | ibrutinib 0.007 | [9] 0.199 | ralimetinib 0.022 | [10] 0.03 | [11] -0.068 | [12] -0.045 | [13] -0.036 | [14] -0.058 | [15] 0.009 | [16] -0.199

NDUFA5 (UniProt Q16718)
inactive: erlotinib 0.094 | [1] -0.02 | [2] -0.025 | [3] 0.003 | [4] 0.001 | [5] 0.009 | [6] -0.049 | [7] 0.004 | [8] 0.098 | IRAK-1-4 Inhibitor I -0.013 | ibrutinib 0.016 | [9] -0.021 | ralimetinib 0.013 | [10] -0.078 | [11] -0.121 | [12] -0.041 | [13] -0.032 | [14] 0.088 | [15] 0.003 | [16] 0.051

NFIC (UniProt P08651)
inactive: erlotinib 0.014 | [1] 0.063 | [2] -0.044 | [3] 0.025 | [4] 0.001 | [5] -0.084 | [6] -0.082 | [7] -0.016 | [8] -0.032 | IRAK-1-4 Inhibitor I 0.052 | ibrutinib -0.019 | [9] 0.014 | ralimetinib 0.009 | [10] -0.058 | [11] 0.235 | [12] -0.038 | [13] -0.044 | [14] 0.049 | [15] 0.04 | [16] -0.082

3 neighbouring entries out of the list so far, quoted:
NDUFA2 (UniProt O43678)
inactive: erlotinib -0.039 | [1] 0.091 | [2] -0.02 | [3] -0.047 | [4] -0.031 | [5] -0.031 | [6] 0.038 | [7] -0.016 | [8] 0.089 | IRAK-1-4 Inhibitor I -0.013 | ibrutinib 0.06 | [9] 0.019 | ralimetinib 0.024 | [10] -0.011 | [11] -0.04 | [12] -0.016 | [13] 0.035 | [14] 0.002 | [15] 0.005 | [16] -0.003

NIP7 (UniProt Q9Y221)
inactive: erlotinib 0.001 | [1] 0.01 | [2] -0.024 | [3] 0.05 | [4] -0.023 | [5] 0.021 | [6] 0 | [7] 0.05 | [8] -0.035 | IRAK-1-4 Inhibitor I -0.011 | ibrutinib 0.039 | [9] 0.017 | ralimetinib 0.016 | [10] 0.032 | [11] 0.009 | [12] 0.009 | [13] -0.026 | [14] 0.002 | [15] -0.001 | [16] 0.031

NDUFA4 (UniProt O00483)
inactive: erlotinib 0.038 | [1] 0.092 | [2] -0.012 | [3] 0.055 | [4] 0.009 | [5] 0.055 | [6] 0.046 | [7] 0.012 | [8] 0.001 | IRAK-1-4 Inhibitor I -0.01 | ibrutinib 0.007 | [9] 0.199 | ralimetinib 0.022 | [10] 0.03 | [11] -0.068 | [12] -0.045 | [13] -0.036 | [14] -0.058 | [15] 0.009 | [16] -0.199

Remaining list, next part:

NDUFS3 (UniProt O75489)
inactive: erlotinib -0.015 | [1] -0.008 | [2] -0.036 | [3] -0.002 | [4] 0.036 | [5] -0.02 | [6] 0 | [7] 0.025 | [8] 0.011 | IRAK-1-4 Inhibitor I 0.007 | ibrutinib -0.024 | [9] 0.013 | ralimetinib -0.008 | [10] -0.008 | [11] -0.016 | [12] 0.027 | [13] -0.006 | [14] -0.018 | [15] -0.004 | [16] 0.013

NLN (UniProt Q9BYT8)
inactive: erlotinib 0.007 | [1] -0.067 | [2] 0.029 | [3] 0 | [4] 0.024 | [5] -0.014 | [6] -0.003 | [7] 0.001 | [8] -0.004 | IRAK-1-4 Inhibitor I 0 | ibrutinib -0.012 | [9] -0.007 | ralimetinib -0.003 | [10] -0.012 | [11] -0.016 | [12] -0.021 | [13] 0.004 | [14] 0.013 | [15] 0.001 | [16] -0.008

NELFB isoform 2 (UniProt Q8WX92)
inactive: erlotinib 0.014 | [1] 0.024 | [2] -0.013 | [3] -0.036 | [4] -0.006 | [5] 0.003 | [6] -0.023 | [7] -0.004 | [8] 0.021 | IRAK-1-4 Inhibitor I -0.002 | ibrutinib 0.039 | [9] 0.021 | ralimetinib 0.056 | [10] -0.011 | [11] 0.004 | [12] 0.032 | [13] -0.016 | [14] 0.007 | [15] 0.008 | [16] 0.014

NFS1 (UniProt Q9Y697)
inactive: erlotinib 0.003 | [1] 0.014 | [2] 0.025 | [3] 0.014 | [4] 0.002 | [5] -0.004 | [6] -0.017 | [7] 0.014 | [8] 0.042 | IRAK-1-4 Inhibitor I 0.017 | ibrutinib 0.011 | [9] -0.004 | ralimetinib 0.013 | [10] -0.041 | [11] -0.002 | [12] -0.016 | [13] -0.026 | [14] 0.017 | [15] -0.025 | [16] 0.007

NELFA (UniProt Q9H3P2)
inactive: erlotinib -0.04 | [1] -0.018 | [2] 0.002 | [3] 0.047 | [4] 0.007 | [5] 0.007 | [6] -0.009 | [7] 0.011 | [8] -0.001 | IRAK-1-4 Inhibitor I -0.017 | ibrutinib 0 | [9] 0.001 | ralimetinib -0.038 | [10] 0.003 | [11] -0.012 | [12] 0.008 | [13] 0.008 | [14] -0.022 | [15] -0.04 | [16] -0.024

NDUFB9 (UniProt Q9Y6M9)
inactive: erlotinib -0.046 | [1] 0.15 | [2] -0.076 | [3] 0.01 | [4] 0.015 | [5] -0.002 | [6] 0.031 | [7] 0.031 | [8] -0.068 | IRAK-1-4 Inhibitor I -0.005 | ibrutinib 0.039 | [9] -0.027 | ralimetinib 0.018 | [10] -0.003 | [11] 0.007 | [12] 0.027 | [13] 0.015 | [14] -0.012 | [15] -0.02 | [16] -0.011

NEK1 isoform 3 (UniProt Q96PY6)
inactive: erlotinib 0.03 | [1] -0.076 | [2] -0.011 | [3] 0 | [4] -0.04 | [5] 0.031 | [6] 0.006 | [7] 0.004 | [8] 0.017 | IRAK-1-4 Inhibitor I 0.012 | ibrutinib 0.038 | [9] 0.045 | ralimetinib 0.034 | [10] -0.061 | [11] -0.02 | [12] -0.016 | [13] -0.002 | [14] 0.014 | [15] -0.01 | [16] 0.05

NDUFB3 (UniProt O43676)
inactive: erlotinib -0.049 | [1] -0.066 | [2] -0.08 | [3] 0.027 | [4] 0.005 | [5] -0.021 | [6] -0.009 | [7] 0.035 | [8] 0.012 | IRAK-1-4 Inhibitor I -0.039 | ibrutinib 0.029 | [9] 0.028 | ralimetinib 0.033 | [10] 0.001 | [11] -0.026 | [12] 0.001 | [13] 0.018 | [14] -0.013 | [15] -0.02 | [16] 0.012
